PubChem BioAssay AID2685 (National Center for Advancing Translational Sciences (NCATS), 2010)
In all, about 320,000 compounds went through this assay and about 2,100 (0.66%) were called active. The shares of active, inactive and inconclusive entries below differ from those in the screen. Calls follow the shape of the dose curve; as a rule, active = well fitted inhibition curve with a large enough effect in the signal ratio, with a control signal flat (not every such curve was filed as active); inconclusive = small, poorly fitted or top-dose-only effect, or effect the other way, or a change in a side signal; inactive = flat fitted curve, though single readings scatter; the % refers to the signal ratio. Potencies beside an inconclusive call are fits to weak or partial responses and may not hold up.

Experiment: qHTS Assay for Lipid Storage Modulators in Drosophila S3 Cells
Conditions: BODIPY lipid droplet fluorescence, 18-24 h, cells fed with added oleic acid; lipid storage change, negative = inhibition: at 46.1 µM (top of the series) unless noted
Outline: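 Drosophila S3 cells loaded with oleic acid (400 uM, as added) and compounds at several concentrations; lipid droplets imaged by 488-nm laser-scanning cytometry, 500–530 nm intensity and object ratio to cell channel. Percent activity normalized to 20 uM Triacsin C.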
% is scaled to controls: 0 for no effect and ±100 for the full control effect; potency is read from the fitted curve at half-maximal effect.

Row | SMILES | Potency | lipid storage change, negative = inhibition | outcome
1 | CCn1c(CCNC(=O)c2ccc(OC)cc2)nnc1SCC(=O)Nc1ccccc1F | inconclusive: 12.6 µM [falling, single point] |  | 
2 | COC(=O)C1=C(N)OC2=C(C(=O)CC(C)(C)C2)C1c1ccoc1 (stereo unspecified) | inconclusive: 7.31 µM [falling, partial curve] |  | 
3 | CCOc1ccccc1NC(=O)Cn1nnc(C(=O)NCc2ccc3c(c2)OCO3)c1N |  | inconclusive: -34% | 
4 | O=C(NC(=S)Nc1cccc(-c2ccc(CO)o2)c1)c1cccs1 |  | inconclusive: -0.163% [at 9.22 µM] | 
5 | COc1ccc(C(=O)N2CCCC2)cc1S(=O)(=O)N1CCOCC1 | active: 7.31 µM |  | 
6 | CCCCOC(=O)c1ccc(NC(=S)NC(=O)c2c(Cl)cnn2CC)cc1 |  | inconclusive: -28.5% | 
7 | COc1cc(C(=O)NC2CCCC(C)C2C)ccc1OCC(=O)N1CCOCC1 (stereo unspecified) | inconclusive: 0.0046 µM [activator, full curve, poor fit] |  | 
8 | COc1ccc(-n2cnc3scc(-c4ccc(OC)c(OC)c4)c3c2=O)cc1 |  | inconclusive: -20% | 
9 | COc1[nH]c(/N=C/c2ccccc2)c(C#N)c1C#N | inconclusive: 20.6 µM [cytotoxic, partial curve] |  | 
10 | Cc1ccc2nc3n(c(=O)c2c1)-c1ccccc1C(=O)NC3Cc1ccccc1 (stereo unspecified) |  | inconclusive: -15.1% | 
11 | Cc1cccc(NC(=O)c2cc(-c3cc(C)ccc3O)n[nH]2)c1 | inconclusive: 7.31 µM [falling, partial curve] |  | 
12 | Cc1noc(C)c1C(=O)N1CCCC(Nc2ccc(C(C)C)cc2)C1 (stereo unspecified) |  | inconclusive: 14.3% | 
13 | CC1(C)Cc2c(cnn2-c2cccc(F)c2)C(NC(=O)CN2CCCC2=O)C1 (stereo unspecified) |  |  | inactive [at 46.1 µM]
14 | Cc1oc2c(c1C(=O)c1ccccc1)C(=O)C(=O)c1ccccc1-2 |  | inconclusive: -92% | 
15 | O=C(COc1ccccc1[N+](=O)[O-])Nc1cccc(C(=O)Nc2ccccc2C(=O)O)c1 |  | inconclusive: 64.6% | 
16 | CC1CC(N(C(=O)c2ccco2)c2ccccc2)c2ccccc2N1C(=O)c1ccco1 (stereo unspecified) | inconclusive: 0.651 µM [activator, single point] |  | 
17 | O=C(NCc1ccccc1Cl)C1=CC=CN2CCS(=O)(=O)N=C12 | inconclusive: 20.6 µM [activator, partial curve] |  | 
18 | Cc1ccc(S(=O)(=O)N2CCOCC2)cc1C(=O)OCC(=O)NC1CC1 | inconclusive: 0.92 µM [falling, full curve] |  | 
19 | CCn1nc2cc(C(=O)NCc3cc(C(F)(F)F)cc(C(F)(F)F)c3)ccc2c1OC |  | inconclusive: -31.3% | 
20 | O=c1c2cnn(-c3ccccc3)c2ncn1Cc1ccco1 | active: 32.6 µM |  | 
21 | N#CC1=C(N)N2C(=C(C#N)C13CCN(Cc1ccccc1)CC3)Nc1ccccc12 | inconclusive: 10.3 µM [rising, partial curve, poor fit] |  | 
22 | O=C(NC1CCCCC1)C(c1ccncc1)N(C(=O)Cc1cccs1)c1ccccc1 (stereo unspecified) |  | inactive: 12.7% | 
23 | O=C(c1ccc(=O)[nH]c1)N1CCN(S(=O)(=O)c2cc(C(F)(F)F)ccc2Cl)CC1 |  | inconclusive: 71.1% | 
24 | CN(C)C(CNS(=O)(=O)c1ccc(F)cc1)c1cccnc1 (stereo unspecified) | inconclusive: 7.31 µM [activator, partial curve] |  | 
25 | c1ccc2[nH]c(CSc3nnc(-c4ccncc4)o3)nc2c1 |  | inconclusive: 18.4% | 
26 | CCN(CC)c1ccc(C(=O)OCC(=O)NC2CCCCC2C)cc1 (stereo unspecified) |  | inconclusive: 12.4% | 

12 compounds from above, arranged by heavy-atom count, rising.
Row | SMILES | Potency | lipid storage change, negative = inhibition | outcome
9 | COc1[nH]c(/N=C/c2ccccc2)c(C#N)c1C#N | inconclusive: 20.6 µM [cytotoxic, partial curve] |  | 
20 | O=c1c2cnn(-c3ccccc3)c2ncn1Cc1ccco1 | active: 32.6 µM |  | 
17 | O=C(NCc1ccccc1Cl)C1=CC=CN2CCS(=O)(=O)N=C12 | inconclusive: 20.6 µM [activator, partial curve] |  | 
4 | O=C(NC(=S)Nc1cccc(-c2ccc(CO)o2)c1)c1cccs1 |  | inconclusive: -0.163% [at 9.22 µM] | 
12 | Cc1noc(C)c1C(=O)N1CCCC(Nc2ccc(C(C)C)cc2)C1 (stereo unspecified) |  | inconclusive: 14.3% | 
18 | Cc1ccc(S(=O)(=O)N2CCOCC2)cc1C(=O)OCC(=O)NC1CC1 | inconclusive: 0.92 µM [falling, full curve] |  | 
6 | CCCCOC(=O)c1ccc(NC(=S)NC(=O)c2c(Cl)cnn2CC)cc1 |  | inconclusive: -28.5% | 
13 | CC1(C)Cc2c(cnn2-c2cccc(F)c2)C(NC(=O)CN2CCCC2=O)C1 (stereo unspecified) |  |  | inactive [at 46.1 µM]
7 | COc1cc(C(=O)NC2CCCC(C)C2C)ccc1OCC(=O)N1CCOCC1 (stereo unspecified) | inconclusive: 0.0046 µM [activator, full curve, poor fit] |  | 
21 | N#CC1=C(N)N2C(=C(C#N)C13CCN(Cc1ccccc1)CC3)Nc1ccccc12 | inconclusive: 10.3 µM [rising, partial curve, poor fit] |  | 
22 | O=C(NC1CCCCC1)C(c1ccncc1)N(C(=O)Cc1cccs1)c1ccccc1 (stereo unspecified) |  | inactive: 12.7% | 
3 | CCOc1ccccc1NC(=O)Cn1nnc(C(=O)NCc2ccc3c(c2)OCO3)c1N |  | inconclusive: -34% | 

Continued.

Row | SMILES | Potency | lipid storage change, negative = inhibition | outcome
27 | CC1(c2ccc(OC(F)F)cc2)NC(=O)N(CC(=O)NCCC2=CCCCC2)C1=O (stereo unspecified) | inconclusive: 7.31 µM [falling, single point] |  | 
28 | NCc1nc(-c2ccc(Cl)cc2)no1 | inconclusive: 29.1 µM [falling, single point] |  | 
29 | COc1ccc(C)cc1NC(=O)CCN1CCN(C/C=C/c2ccccc2)CC1 | inconclusive: 2.06 µM [falling, partial curve] |  | 
30 | CS(=O)(=O)c1ccc(C(=O)OC2CCOC2=O)cc1[N+](=O)[O-] (stereo unspecified) | inconclusive: 0.0184 µM [activator, full curve, poor fit] |  | 
31 | CCCN1CCN(S(=O)(=O)c2cc3c(cc2C)NC(=O)CO3)CC1 |  | inconclusive: 24.9% | 
32 | CCC1Oc2ccccc2N(CC(=O)NCCCN2CCN(Cc3ccccc3)CC2)C1=O (stereo unspecified) |  | inconclusive: 28.1% | 
33 | Cc1cccc(-n2nc3c(c2NC(=O)c2cc4ccccc4o2)CS(=O)(=O)C3)c1 | inconclusive: 23.1 µM [falling, single point] |  | 
34 | COc1cccc(NC(=O)C2CCCC2)c1 | inconclusive: 29.1 µM [activator, single point] |  | 
35 | Cc1c(C)n(Cc2ccc(F)cc2)c2ccc(C(=O)N3CCN(c4ccccn4)CC3)cc12 |  | inconclusive: -53.8% | 
36 | COc1ccc(CN2C(=O)CCC2(C)C(=O)NCc2cccnc2)c(OC)c1 (stereo unspecified) |  | inconclusive: 17.2% | 
37 | COc1ccc(OC)c(/C=N/NC(=O)c2ccc[n+](CC(=O)c3ccccc3)c2)c1 |  | inconclusive: -43.2% | 
38 | CNc1nc(Cl)c(SC)c(NC2CCCCC2)n1 |  | inconclusive: 11.5% | 
39 | CCCCN1C(=O)c2ccc(C(=O)NC3=NCCS3)cc2C1=O | inconclusive: 1.46 µM [activator, partial curve] |  | 
40 | CC(C)(C)c1ccc(C(=O)N2CCC(=O)N(C(CO)Cc3ccccc3)CC2)cc1 (stereo unspecified) |  | inconclusive: -10.2% | 
41 | NS(=O)(=O)c1cccc(NC(=O)COC(=O)CN2C(=O)C3CC=CCC3C2=O)c1 (stereo unspecified) |  | inconclusive: 11.6% | 
42 | CC(CNC(=O)c1ccc(NC2=NC3CS(=O)(=O)CC3S2)cc1)c1ccccc1 (stereo unspecified) |  | inconclusive: 12.5% | 
43 | CC(C)(C)NC(=O)NC(=O)CN1CCN(S(=O)(=O)/C=C/c2ccccc2)CC1 |  | inconclusive: -74.2% | 
44 | CCOC(=O)c1c(NC(=O)C(C)Sc2cn(C)c3ccccc23)sc2c1CCC2 (stereo unspecified) |  | inconclusive: -29.2% | 
45 | COc1ccc(OC)c(C(=O)N2CCCC(Nc3ccc(F)cc3)C2)c1 (stereo unspecified) | inconclusive: 0.58 µM [falling, single point] |  | 
46 | O=C(NCc1ccc(F)cc1)c1ccc(CS(=O)Cc2ccccc2Cl)o1 (stereo unspecified) | inconclusive: 6.51 µM [activator, single point] |  | 
47 | CCOc1ccc2nc(C(C)O)[nH]c2c1 (stereo unspecified) |  | inconclusive: -3.55% | 
48 | Cc1ccc(/C(N)=N/OC(=O)c2ccc(Cl)cc2Cl)cc1 |  | inconclusive: 31.1% | 
49 | OC1(c2ccc(F)cc2)CCN(Cc2cccnc2)CC1 |  | inconclusive: -30.9% | 
50 | COc1ccc(-c2c(-c3ccccc3OC)sc3ccccc23)cc1 | inconclusive: 14.6 µM [activator, partial curve, poor fit] |  | 
51 | CSc1ccc(S(=O)(=O)NC(C)c2ccccc2)cc1 (stereo unspecified) | inconclusive: 32.6 µM [rising, partial curve, poor fit] |  | 
52 | Cc1cc(N2CCOCC2)n2ncc(-c3ccccc3)c2n1 |  |  | inactive [at 46.1 µM]

Row | SMILES | Potency | lipid storage change, negative = inhibition | outcome
53 | CCOc1ccc(C(=O)NCC(=O)OCC(=O)Nc2cccc(S(=O)(=O)N3CCCC3)c2)cc1 |  | inconclusive: 1.27% | 
54 | COc1ccc(-c2cc(C(=O)N3CCN(c4ccccc4F)CC3)c3ccccc3n2)c(OC)c1 | active: 3.26 µM |  | 
55 | O=C(Cc1ccc(S(=O)(=O)N2CCCCC2)s1)Nc1cccc2ccccc12 |  | inconclusive: 4.93% | 
56 | COc1cccc(-n2cc(C(=O)NC(C)C)c3ccccc3c2=O)c1 |  | inconclusive: 11.2% | 
57 | COc1ccc(-n2nc3c(c2NC(=O)CCl)CSC3)cc1 | inconclusive: 0.146 µM [falling, single point] |  | 
58 | COc1ccc(CCC(=O)OCC(=O)Nc2ccccc2)cc1 |  |  | inactive [at 46.1 µM]
59 | Cc1nn(-c2ccc(C(=O)O)cc2)c(C)c1Cl |  | inconclusive: 3.89% | 
60 | COC(=O)c1[nH]c2cccc(Cl)c2c1NC(=O)CN(C)C1CCCCC1 |  | inconclusive: 30.4% | 
61 | COCc1cc(=O)n2[nH]cc(-c3ccsc3)c2n1 |  | inconclusive: 13% | 
62 | CCOC(=O)/C(=C/c1c[nH]c2ccccc12)NC(C)=O |  | inconclusive: 28.1% | 
63 | COc1ccc(N2CCN(C3CCCN(S(=O)(=O)c4ccc(C)cc4C)C3)CC2)cc1 (stereo unspecified) | inconclusive: 25.9 µM [falling, single point] |  | 
64 | COc1ccc(NC(=O)CNC(=O)Cc2ccccc2)cc1 | inconclusive: 6.51 µM [falling, single point] |  | 
65 | Cc1cc(C)cc(N(CC(=O)N2CCCCCC2)S(C)(=O)=O)c1 |  | inconclusive: 3.85% | 
66 | O=C(CCNC(=O)c1ccccc1Cl)Nc1cc(C(F)(F)F)ccc1N1CCCC1 |  | inconclusive: -56% | 
67 | CCOC(=O)c1c(S(=O)(=O)NCCCc2ccco2)c(C)n(C)c1C |  | inconclusive: 2.95% | 
68 | C=C1CCN([C@H](C(=O)NCc2ccc(OC)cc2)C(C)C)S(=O)(=O)c2ccccc21 |  | inconclusive: 4.91% | 
69 | CC(=O)Nc1ccc2oc(-c3cc(F)c(F)cc3Cl)nc2c1 |  | inconclusive: 14.5% | 
70 | Cc1cc(C(=O)COc2ccccc2C#N)c(C)n1C1CC1 | inconclusive: 3.26 µM [activator, single point] |  | 
71 | CCC(C)c1ccc(NC(=O)CC(C)=O)cc1 (stereo unspecified) |  | inconclusive: -0.27% | 
72 | CCn1c(=S)sc2c(=O)n(CC(=O)Nc3ccc(Cl)cc3)c(C)nc21 |  | inconclusive: -20.7% | 
73 | Nn1c(SCC(=O)Nc2ccc3c(c2)OCO3)nnc1-c1cccc(Cl)c1 |  | inactive: -0.669% | 
74 | CCCOC(=O)Nc1sc2c(c1C(=O)OCC)CCC2 |  | inconclusive: -18.8% | 
75 | O=C(CSc1ncccn1)Nc1ccc2c(c1)CCC2 |  | inconclusive: 9.35% | 
76 | CCOc1ccc(CN(C)CC(=O)Nc2ccc([N+](=O)[O-])cc2Cl)cc1 |  | inconclusive: -7.25% | 
